The record followed here is patent publication US10017832.

Common to all, as to assay: enzyme reaction in vitro
Series [1] deals with T1, Cre-A2 K25R,D29R,R32E,D33L,Q35R,R337E (UniProt P06956).
T1 sequence: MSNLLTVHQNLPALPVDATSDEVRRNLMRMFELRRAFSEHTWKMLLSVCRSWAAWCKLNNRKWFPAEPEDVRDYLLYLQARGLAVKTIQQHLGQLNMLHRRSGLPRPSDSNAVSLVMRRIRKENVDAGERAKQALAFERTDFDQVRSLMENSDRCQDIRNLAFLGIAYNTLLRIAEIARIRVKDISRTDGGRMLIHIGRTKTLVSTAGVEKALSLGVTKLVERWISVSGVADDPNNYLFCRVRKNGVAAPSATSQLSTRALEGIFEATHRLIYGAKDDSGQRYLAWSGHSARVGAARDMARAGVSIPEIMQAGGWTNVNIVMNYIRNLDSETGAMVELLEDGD
The note with it: reduced relative to Cre-A1; purified recombinant protein; protein details: N-terminal Met-His7 (in vitro assay).

Another series addresses T2, Cre-B1 E69D,R72K,L76E (UniProt P06956).
T2 sequence: T1 sequence with R25K, R29D, E32R, L33D, R35Q, E69D, R72K, L76E, E337R
As to conditions: recombination inactive in isolation; DNA binding not measured; purified recombinant protein; protein details: N-terminal Met-His7 (in vitro assay).

The test system of series [2] is Cre-A2+Cre-B2 chain 1: K25R,D29R,R32E,D33L,Q35R,R337E. The note with it: strong recombinase activity; purified recombinant protein; protein details: N-terminal Met-His7 (in vitro assay).
Series [3] deals with T3, Cre-A1 K25R,D29R,R32E,D33L,Q35R (UniProt P06956).
T3 sequence: T1 sequence with E337R
The note with it: active individually; purified recombinant protein; protein details: N-terminal Met-His7 (in vitro assay).

A further series concerns Cre-A3+Cre-B2. The note with it: heterotetramer active; purified recombinant protein; protein details: N-terminal Met-His7 (in vitro assay).
Series [4] concerns Cre-A1+Cre-B1 chain 1: K25R,D29R,R32E,D33L,Q35R, chain 2: E69D,R72K,L76E. As to conditions: combined pair active; purified recombinant protein; protein details: N-terminal Met-His7 (in vitro assay).
The target of a further series is T4, Cre-B2 (UniProt P06956).
T4 sequence: T1 sequence with R25K, R29D, E32R, L33D, R35Q, E69D, R72K, L76E, E308R, E337R
The note with it: recombination inactive in isolation; DNA binding not measured; purified recombinant protein; protein details: N-terminal Met-His7 (in vitro assay).

The target in a further series is T5, Cre-A3 (UniProt P06956).
T5 sequence: T1 sequence with E123L
The note with it: homotetramer recombination disrupted; DNA binding not measured; purified recombinant protein; protein details: N-terminal Met-His7 (in vitro assay).

Where a chain is given by its changes, count along the chain named. For some assays here: Negatives hold for the conditions tested. For some assays here: Protein sequences can lack the tags named with them. For some assays here: Weaker means in comparison with the reference protein, sequence or condition of that experiment.

For the sequence “ATAACTTCGTATAGCATACATTATACGAAGTTAT (double strand) [loxP]”, the “activity on this sequence” value was “less active” in series [1]; “not active” with Cre-B1 E69D,R72K,L76E; “active” in series [2]; “active” in series [3]; “active” in the series on Cre-A3+Cre-B2; “active” in series [4]. In addition, the “activity on this sequence” value with Cre-B2 and with Cre-A3 was “not active” in each case.
